Here are results for two sequences from PMC4027156.

Data set [1] deals with T1, caZαPKZ WT (Carassius auratus) (UniProt Q7T2M9).
T1 sequence (looked up): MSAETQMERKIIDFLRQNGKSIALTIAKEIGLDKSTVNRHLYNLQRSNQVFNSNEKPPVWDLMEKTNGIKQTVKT
The experiment in a line: CD B-to-Z transition. Particulars: full conversion at 4:1 protein/DNA; recombinant protein; residues 1-75; protein details: His tag (pET28a), thrombin-treated.

The target of data set [2] is T2, caZαPKZ S35K/K56T (Carassius auratus) (UniProt Q7T2M9).
T2 sequence (looked up): T1 sequence (looked up) with S35K, K56T
The experiment in a line: CD B-to-Z transition. Particulars: slower than WT; recombinant protein; residues 1-75; protein details: His tag (pET28a), thrombin-treated.

Data set [3] concerns the target T3, caZαPKZ S35A/R39A/K56A/P57A (Carassius auratus) (UniProt Q7T2M9).
T3 sequence (looked up): T1 sequence (looked up) with S35A, R39A, K56A, P57A
Put plainly: CD B-to-Z transition. The settings on record: group 3 (appeared to lose activity); recombinant protein; residues 1-75; protein details: His tag (pET28a), thrombin-treated.

In data set [4] the target is T4, caZαPKZ K34A (Carassius auratus) (UniProt Q7T2M9).
T4 sequence (looked up): T1 sequence (looked up) with K34A
Put plainly: CD B-to-Z transition. The settings on record: recombinant protein; residues 1-75; protein details: His tag (pET28a), thrombin-treated.

The target in data set [5] is T5, caZαPKZ R39A/K56A/P57A (Carassius auratus) (UniProt Q7T2M9).
T5 sequence (looked up): T1 sequence (looked up) with R39A, K56A, P57A
The experiment in a line: CD B-to-Z transition. The settings on record: no detectable B-to-Z transition activity; recombinant protein; residues 1-75; protein details: His tag (pET28a), thrombin-treated.

Data set [6] has as its target T6, caZαPKZ K56R (Carassius auratus) (UniProt Q7T2M9).
T6 sequence (looked up): T1 sequence (looked up) with K56R
Put plainly: CD B-to-Z transition. Particulars: transition twice as fast as WT; recombinant protein; residues 1-75; protein details: His tag (pET28a), thrombin-treated.

The target in data set [7] is T7, caZαPKZ S35A/R39A/K56A (Carassius auratus) (UniProt Q7T2M9).
T7 sequence (looked up): T1 sequence (looked up) with S35A, R39A, K56A
The experiment in a line: CD B-to-Z transition. The settings on record: group 3, slow rate measured; recombinant protein; residues 1-75; protein details: His tag (pET28a), thrombin-treated.

The target in data set [8] is T8, caZαPKZ K56T (Carassius auratus) (UniProt Q7T2M9).
T8 sequence (looked up): T1 sequence (looked up) with K56T
The experiment in a line: CD B-to-Z transition. Particulars: slower than WT; recombinant protein; residues 1-75; protein details: His tag (pET28a), thrombin-treated.

The target of data set [9] is T9, caZαPKZ K56A (Carassius auratus) (UniProt Q7T2M9).
T9 sequence (looked up): T1 sequence (looked up) with K56A
The experiment in a line: CD B-to-Z transition. Particulars: slower transition rate than WT; recombinant protein; residues 1-75; protein details: His tag (pET28a), thrombin-treated.

The target of data set [10] is T10, caZαPKZ S35K (Carassius auratus) (UniProt Q7T2M9).
T10 sequence (looked up): T1 sequence (looked up) with S35K
The experiment in a line: CD B-to-Z transition. The settings on record: faster than WT; recombinant protein; residues 1-75; protein details: His tag (pET28a), thrombin-treated.

The target of data set [11] is T11, caZαPKZ W60A (Carassius auratus) (UniProt Q7T2M9).
T11 sequence (looked up): T1 sequence (looked up) with W60A
The experiment in a line: CD B-to-Z transition. Particulars: activity almost completely abolished, misfolding possible; recombinant protein; residues 1-75; protein details: His tag (pET28a), thrombin-treated.

Data set [12] deals with T12, caZαPKZ R39A (Carassius auratus) (UniProt Q7T2M9).
T12 sequence (looked up): T1 sequence (looked up) with R39A
Put plainly: CD B-to-Z transition. The settings on record: recombinant protein; residues 1-75; protein details: His tag (pET28a), thrombin-treated.

Data set [13] has as its target T13, caZαPKZ Y42A (Carassius auratus) (UniProt Q7T2M9).
T13 sequence (looked up): T1 sequence (looked up) with Y42A
Put plainly: CD B-to-Z transition. The settings on record: activity almost completely abolished, misfolding possible; recombinant protein; residues 1-75; protein details: His tag (pET28a), thrombin-treated.

The target in data set [14] is T14, caZαPKZ N38A (Carassius auratus) (UniProt Q7T2M9).
T14 sequence (looked up): T1 sequence (looked up) with N38A
Put plainly: CD B-to-Z transition. The settings on record: recombinant protein; residues 1-75; protein details: His tag (pET28a), thrombin-treated.

Data set [15] deals with T15, caZαPKZ S35A (Carassius auratus) (UniProt Q7T2M9).
T15 sequence (looked up): T1 sequence (looked up) with S35A
Put plainly: CD B-to-Z transition. The settings on record: recombinant protein; residues 1-75; protein details: His tag (pET28a), thrombin-treated.

The target in data set [16] is T16, hZαDAI (human) (UniProt Q9H171).
T16 sequence (looked up, limits assumed): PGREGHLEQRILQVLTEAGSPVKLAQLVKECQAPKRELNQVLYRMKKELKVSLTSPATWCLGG
Put plainly: CD B-to-Z transition. Particulars: recombinant protein.

Data set [17] concerns the target T1, caZαPKZ WT (Carassius auratus). Put plainly: X-ray crystallography (1.7 A). Particulars: Mn2+; recombinant protein; residues 1-75; protein details: His tag (pET28a), thrombin-treated.

Where a chain is given by its changes, count along the chain named. For some assays here: No signal at the amounts used counts as a negative. For some assays here: At least one verdict rests on a figure or table, not on a statement of the authors. Where a protein sequence is shown, tags need not be part of it. For some assays here: Weaker means in comparison with the reference protein, sequence or condition of that experiment. For some assays here: Construct, isoform or probe ends are uncertain for at least one entry.

For the sequence “CGCGCGCGCGCG (double strand) [ds-(dCdG)6]”, the binding result in [1] is given as “binds”; in data set [2], “binds”; in data set [3], “no binding”; in [4] it was “binds more weakly”; in [5], “no binding”; in data set [6] it was “binds”. Also, the binding result in data set [7] is “binds more weakly”; in data set [8] it was “binds”; in data set [9] it was “binds”; in data set [10] it was “binds”; in data set [11], “binds more weakly”; in data set [12] it was “binds”. Further, the binding result is “binds more weakly” in data set [13], “binds more weakly” in data set [14], “binds” in [15] and “binds” in data set [16].
TCGCGCG / TCGCGCG [ds-dT(dCdG)3]: the binding result in data set [17] is reported as “binds”.
